Results reported in patent publication US20100093624A1, “PEPTIDE THERAPEUTICS THAT BIND VEGF AND METHODS OF USE THEREOF” (Cosmix Therapeutics LLC, priority 2008, published 2010).
These are yes or no findings as the source states them, for the method shown. Some binding calls cover weakened binding; strength is not graded here.

Amino acid sequences for entries named in this document (tags omitted). Residues count along the entry.
UniProt P02769, residues 25-607: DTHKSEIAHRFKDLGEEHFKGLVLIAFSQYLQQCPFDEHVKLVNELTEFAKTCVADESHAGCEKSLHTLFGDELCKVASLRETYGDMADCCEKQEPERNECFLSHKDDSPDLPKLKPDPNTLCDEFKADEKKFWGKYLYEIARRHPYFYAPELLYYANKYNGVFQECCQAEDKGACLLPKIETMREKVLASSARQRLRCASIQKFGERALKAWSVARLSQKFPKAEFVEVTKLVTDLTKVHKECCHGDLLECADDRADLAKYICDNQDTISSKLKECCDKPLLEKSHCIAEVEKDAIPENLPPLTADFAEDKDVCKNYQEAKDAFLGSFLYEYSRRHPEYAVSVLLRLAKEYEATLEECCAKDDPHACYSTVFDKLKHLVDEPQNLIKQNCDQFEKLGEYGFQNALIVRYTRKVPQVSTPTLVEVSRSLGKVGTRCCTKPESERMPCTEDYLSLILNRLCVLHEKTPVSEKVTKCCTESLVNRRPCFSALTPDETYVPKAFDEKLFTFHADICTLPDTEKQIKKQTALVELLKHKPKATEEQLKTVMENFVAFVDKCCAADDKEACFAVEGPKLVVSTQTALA

Target: contr. (BSA) (bovine) (UniProt P02769)
Test: ELISA: 1% BSA coated as control, biotinylated L-peptide, streptavidin-peroxidase

binding | Binder
binds | SGSSSGSGSGNALHWVCASNICWRTPWAGQLWRLVRLT (free N-terminus (H2N-); C-terminal PEG-Bio (PEG spacer and biotin); all L-form) [Peptide 07-072 (L-form; variant carrying all three hot spot mutations)]
binds | GNALHWVCASNICWRSPWAGRLWGLVRLT (N-terminal acetyl (Ac-); C-terminal PEG-Bio (PEG spacer and biotin); all L-form) [Peptide 07-007 (L-form; original starting sequence of G2306)]
